Results as given in paper PMC3991585.

Biological target: GhMPK20 (GAL4 DNA-binding domain fusion, pGBKT7) (Gossypium hirsutum (cotton)) (UniProt S4S5K8)
Test: two-hybrid

GhWRKY40 (GAL4 activation domain fusion, pGADT7) (from UniProt A0A023INS2)
binding: binds

These are yes or no findings as the source states them, for the method shown. Binding calls can cover weak binding; strength is not graded here.
